Data as given in PubChem BioAssay AID686938 (Drosophila RNAi Screening Center, 2013)

Assay: 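Fly genes required for calcium entry once internal stores are emptied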 (primary screen)
Cell system: Drosophila S2R+ cells
Reagent: long dsRNA against Drosophila genes, about 0.25 µg dsRNA per well, roughly 10,000 cells
Timing: 5 days of knock-down before the calcium assay
Challenge: thapsigargin (SERCA pump blocker) to empty calcium stores; entry signal taken 4 min after adding it
Measurement: 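Per-well fluo-4 fluorescence in two replicates, unnormalised, measured in resting cells and 4 min after store depletion by the SERCA blocker thapsigargin; ratio of the two present in few wells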
Direction: calcium entry signal: higher = stronger calcium signal after store depletion; entry to resting ratio: higher = more calcium entry relative to resting level; resting calcium signal: higher = higher resting calcium signal
Units: calcium entry signal in fluorescence units; resting calcium signal in fluorescence units
Hit rule: 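Hit if the duplicate-averaged plate z-score for entry over resting signal is under −3; wells with weak total dye signal (Fmax z < −2) or more than 5 off-targets removed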
Calls: active = strongly reduced calcium entry; inactive = no strong reduction
In all, the deposit lists about 23,000 reagents; this is a random part of those with a known target gene and a result. In the full data, 75 (0.33%) were called active. 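Raw plate signals without normalisation; calls rest on plate z-scores that were not deposited; ratio present for only 364 wells.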 A number with no mark means an inactive call. A plus sign joins genes that one reagent is predicted to hit. Not given: the dose of the treatment.

CG10555 [DRSC17748]: calcium entry signal, replicate 1 = 3.13e7; calcium entry signal, replicate 2 = 4.30e7; resting calcium signal, replicate 1 = 1.77e7; resting calcium signal, replicate 2 = 2.22e7
CG10555 [DRSC23202]: calcium entry signal, replicate 1 = 3.57e7; calcium entry signal, replicate 2 = 3.52e7; resting calcium signal, replicate 1 = 1.84e7; resting calcium signal, replicate 2 = 1.69e7
Prp3 [DRSC10912]: calcium entry signal, replicate 1 = 2.36e7; calcium entry signal, replicate 2 = 2.84e7; resting calcium signal, replicate 1 = 1.48e7; resting calcium signal, replicate 2 = 1.69e7
Pka-C3 [DRSC09402]: calcium entry signal, replicate 1 = 3.34e7; calcium entry signal, replicate 2 = 3.63e7; resting calcium signal, replicate 1 = 1.56e7; resting calcium signal, replicate 2 = 1.85e7
Pka-C3 [DRSC11254]: calcium entry signal, replicate 1 = 3.57e7; calcium entry signal, replicate 2 = 5.93e7; resting calcium signal, replicate 1 = 1.51e7; resting calcium signal, replicate 2 = 1.84e7
ind [DRSC11355]: calcium entry signal, replicate 1 = 4.26e7; calcium entry signal, replicate 2 = 5.46e7; resting calcium signal, replicate 1 = 2.28e7; resting calcium signal, replicate 2 = 2.55e7
ind [DRSC23095]: calcium entry signal, replicate 1 = 4.95e7; calcium entry signal, replicate 2 = 4.64e7; resting calcium signal, replicate 1 = 2.28e7; resting calcium signal, replicate 2 = 1.90e7
PGRP-LD + Pmi [DRSC10512]: calcium entry signal, replicate 1 = 3.07e7; calcium entry signal, replicate 2 = 2.32e7; resting calcium signal, replicate 1 = 2.33e7; resting calcium signal, replicate 2 = 9.82e6
PGRP-LD + Pmi [DRSC10513]: calcium entry signal, replicate 1 = 3.72e7; calcium entry signal, replicate 2 = 2.92e7; resting calcium signal, replicate 1 = 1.86e7; resting calcium signal, replicate 2 = 1.44e7
ect [DRSC10675]: calcium entry signal, replicate 1 = 3.32e7; calcium entry signal, replicate 2 = 4.49e7; resting calcium signal, replicate 1 = 1.80e7; resting calcium signal, replicate 2 = 2.16e7
ect [DRSC11343]: calcium entry signal, replicate 1 = 3.23e7; calcium entry signal, replicate 2 = 3.99e7; resting calcium signal, replicate 1 = 1.72e7; resting calcium signal, replicate 2 = 2.02e7
ect [DRSC22357]: calcium entry signal, replicate 1 = 3.60e7; calcium entry signal, replicate 2 = 4.98e7; resting calcium signal, replicate 1 = 1.83e7; resting calcium signal, replicate 2 = 2.71e7
CG5805 [DRSC15878]: calcium entry signal, replicate 1 = 5.40e7; calcium entry signal, replicate 2 = 4.12e7; resting calcium signal, replicate 1 = 2.44e7; resting calcium signal, replicate 2 = 1.84e7
CG15263 [DRSC01974]: calcium entry signal, replicate 1 = 3.75e7; calcium entry signal, replicate 2 = 2.25e7; resting calcium signal, replicate 1 = 1.88e7; resting calcium signal, replicate 2 = 1.27e7
CG17361 [DRSC10266]: calcium entry signal, replicate 1 = 5.14e7; calcium entry signal, replicate 2 = 4.53e7; resting calcium signal, replicate 1 = 2.19e7; resting calcium signal, replicate 2 = 1.94e7
Cyp6a22 [DRSC07382]: calcium entry signal, replicate 1 = 4.16e7; calcium entry signal, replicate 2 = 3.96e7; resting calcium signal, replicate 1 = 1.95e7; resting calcium signal, replicate 2 = 1.89e7
Rac1 [DRSC08688]: calcium entry signal, replicate 1 = 2.91e7; calcium entry signal, replicate 2 = 3.23e7; resting calcium signal, replicate 1 = 1.59e7; resting calcium signal, replicate 2 = 1.55e7
CG9586 [DRSC03270]: calcium entry signal, replicate 1 = 3.76e7; calcium entry signal, replicate 2 = 6.01e7; resting calcium signal, replicate 1 = 1.69e7; resting calcium signal, replicate 2 = 2.57e7
ninaG [DRSC16102]: calcium entry signal, replicate 1 = 2.43e7; calcium entry signal, replicate 2 = 3.07e7; resting calcium signal, replicate 1 = 1.30e7; resting calcium signal, replicate 2 = 1.59e7
CG13605 [DRSC14608]: calcium entry signal, replicate 1 = 3.26e7; calcium entry signal, replicate 2 = 3.21e7; resting calcium signal, replicate 1 = 1.70e7; resting calcium signal, replicate 2 = 1.52e7
RpL6 [DRSC14323]: calcium entry signal, replicate 1 = 2.43e7; calcium entry signal, replicate 2 = 2.87e7; entry to resting ratio = 1.9; resting calcium signal, replicate 1 = 1.27e7; resting calcium signal, replicate 2 = 1.47e7
RpL6 [DRSC22384]: calcium entry signal, replicate 1 = 1.50e7; calcium entry signal, replicate 2 = 2.89e7; resting calcium signal, replicate 1 = 9.51e6; resting calcium signal, replicate 2 = 1.45e7
